In assay [1] the target is γ-tubulin, endogenous (human (endogenous in U-251 MG)) (UniProt P23258). As to the kind of experiment: co-IP; whole-cell extracts of cells expressing GIT1-NG, GIT2-NG or NG alone; precipitation with anti-NG Ab or, reciprocally, anti-γ-tubulin Ab on protein A beads; immunoblot. In general terms: A western blot detects proteins with antibodies after separation by electrophoresis.

The chains behind the UniProt entries cited, without tags or fusion partners. Where a name states a change or a piece, a line headed by the entry shows the natural chain unless it says otherwise.
UniProt P23258: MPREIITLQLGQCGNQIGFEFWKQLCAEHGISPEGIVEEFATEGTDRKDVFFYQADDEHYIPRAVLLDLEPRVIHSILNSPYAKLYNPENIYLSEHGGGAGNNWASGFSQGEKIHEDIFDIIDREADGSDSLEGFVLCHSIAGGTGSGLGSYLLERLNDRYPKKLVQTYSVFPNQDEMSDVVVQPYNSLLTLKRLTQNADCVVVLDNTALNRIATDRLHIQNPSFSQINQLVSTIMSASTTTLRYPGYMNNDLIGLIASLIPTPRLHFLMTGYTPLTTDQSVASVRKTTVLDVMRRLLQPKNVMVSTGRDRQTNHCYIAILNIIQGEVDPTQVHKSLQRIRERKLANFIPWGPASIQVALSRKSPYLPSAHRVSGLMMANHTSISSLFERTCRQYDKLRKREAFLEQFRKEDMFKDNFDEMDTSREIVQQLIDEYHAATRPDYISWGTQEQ

For assay [2], the target named is N-terminally GST-tagged full-length human γ-tubulin (GST-γ-tubulin) (human) (UniProt P23258). Put plainly: pull-down; GST-fusion proteins or GST alone immobilised on Glutathione-Sepharose and incubated with whole-cell extracts of U-251 MG cells; immunoblot; only the target purified.
In assay [3] the target is γ-tubulin, endogenous (human (endogenous in U-251 MG)) (UniProt P23258). Put plainly: co-IP; whole-cell extracts of U-251 MG cells (HEPES buffer with 1% NP-40, protease and phosphatase inhibitors) incubated with protein A beads preloaded with rabbit Ab to GIT1, GIT2 or PKCα or mAb TU-31 to γ-tubulin; immunoblot; endogenous proteins.

These are yes or no findings as the source states them, for the method shown. Binding seen in cells or lysates may run through a third protein. A result given as binding can be weak or reduced; the word gives no strength. For part of these data: Sequences can lack the tags named with a protein.

B1: C-terminally mNeonGreen-tagged human GIT1, transcript variant 1 (GIT1-NG) (protein, UniProt Q9Y2X7-3 1-770)
chain: MSRKGPRAEVCADCSAPDPGWASISRGVLVCDECCSVHRSLGRHISIVKHLRHSAWPPTLLQMVHTLASNGANSIWEHSLLDPAQVQSGRRKANPQDKVHPIKSEFIRAKYQMLAFVHKLPCRDDDGVTAKDLSKQLHSSVRTGNLETCLRLLSLGAQANFFHPEKGTTPLHVAAKAGQTLQAELLVVYGADPGSPDVNGRTPIDYARQAGHHELAERLVECQYELTDRLAFYLCGRKPDHKNGHYIIPQMADRSRQKCMSQSLDLSELAKAAKKKLQALSNRLFEELAMDVYDEVDRRENDAVWLATQNHSTLVTERSAVPFLPVNPEYSATRNQGRQKLARFNAREFATLIIDILSEAKRRQQGKSLSSPTDNLELSLRSQSDLDDQHDYDSVASDEDTDQEPLRSTGATRSNRARSMDSSDLSDGAVTLQEYLELKKALATSEAKVQQLMKVNSSLSDELRRLQREIHKLQAENLQLRQPPGPVPTPPLPSERAEHTPMAPGGSTHRRDRQAFSMYEPGSALKPFGGPPGDELTTRLQPFHSTELEDDAIYSVHVPAGLYRIRKGVSASAVPFTPSSPLLSCSQEGSRHTSKLSRHGSGADSDYENTQSGDPLLGLEGKRFLELGKEEDFHPELESLDGDLDPGLPSTEDVILKTEQVTKNIQELLRAAQEFKHDSFVPCSEKIHLAVTEMASLFPKRPALEPVRSSLRLLNASAYRLQSECRKTVPPEPGAPVDFQLLTQQVIQCAYDIAKAAKQLVTITTREKKQ
Regarding B1, the binding result in assay [1] is “binds”.

B2: G protein-coupled receptor kinase-interacting protein 1 (GIT1), endogenous (protein, UniProt Q9Y2X7-3 1-770)
chain: MSRKGPRAEVCADCSAPDPGWASISRGVLVCDECCSVHRSLGRHISIVKHLRHSAWPPTLLQMVHTLASNGANSIWEHSLLDPAQVQSGRRKANPQDKVHPIKSEFIRAKYQMLAFVHKLPCRDDDGVTAKDLSKQLHSSVRTGNLETCLRLLSLGAQANFFHPEKGTTPLHVAAKAGQTLQAELLVVYGADPGSPDVNGRTPIDYARQAGHHELAERLVECQYELTDRLAFYLCGRKPDHKNGHYIIPQMADRSRQKCMSQSLDLSELAKAAKKKLQALSNRLFEELAMDVYDEVDRRENDAVWLATQNHSTLVTERSAVPFLPVNPEYSATRNQGRQKLARFNAREFATLIIDILSEAKRRQQGKSLSSPTDNLELSLRSQSDLDDQHDYDSVASDEDTDQEPLRSTGATRSNRARSMDSSDLSDGAVTLQEYLELKKALATSEAKVQQLMKVNSSLSDELRRLQREIHKLQAENLQLRQPPGPVPTPPLPSERAEHTPMAPGGSTHRRDRQAFSMYEPGSALKPFGGPPGDELTTRLQPFHSTELEDDAIYSVHVPAGLYRIRKGVSASAVPFTPSSPLLSCSQEGSRHTSKLSRHGSGADSDYENTQSGDPLLGLEGKRFLELGKEEDFHPELESLDGDLDPGLPSTEDVILKTEQVTKNIQELLRAAQEFKHDSFVPCSEKIHLAVTEMASLFPKRPALEPVRSSLRLLNASAYRLQSECRKTVPPEPGAPVDFQLLTQQVIQCAYDIAKAAKQLVTITTREKKQ
For B2, the binding result in assay [2] and in assay [3] was “binds” throughout.

B3: C-terminally mNeonGreen-tagged human GIT2, transcript variant 1 (GIT2-NG) (protein, UniProt Q14161-1 1-759)
chain: MSKRLRSSEVCADCSGPDPSWASVNRGTFLCDECCSVHRSLGRHISQVRHLKHTPWPPTLLQMVETLYNNGANSIWEHSLLDPASIMSGRRKANPQDKVHPNKAEFIRAKYQMLAFVHRLPCRDDDSVTAKDLSKQLHSSVRTGNLETCLRLLSLGAQANFFHPEKGNTPLHVASKAGQILQAELLAVYGADPGTQDSSGKTPVDYARQGGHHELAERLVEIQYELTDRLAFYLCGRKPDHKNGQHFIIPQMADSSLDLSELAKAAKKKLQSLSNHLFEELAMDVYDEVDRRETDAVWLATQNHSALVTETTVVPFLPVNPEYSSTRNQGRQKLARFNAHEFATLVIDILSDAKRRQQGSSLSGSKDNVELILKTINNQHSVESQDNDQPDYDSVASDEDTDLETTASKTNRQKSLDSDLSDGPVTVQEFMEVKNALVASEAKIQQLMKVNNNLSDELRIMQKKLQTLQSENSNLRKQATTNVYQVQTGSEYTDTSNHSSLKRRPSARGSRPMSMYETGSGQKPYLPMGEASRPEESRMRLQPFPAHIGRSALVTSSSSLPSFPSTLSWSRDESARRASRLEKQNSTPESDYDNTPNDMEPDGMGSSRKGRQRSMVWPGDGLVPDTAEPHVAPSPTLPSTEDVIRKTEQITKNIQELLRAAQENKHDSYIPCSERIHVAVTEMAALFPKKPKSDMVRTSLRLLTSSAYRLQSECKKTLPGDPGSPTDVQLVTQQVIQCAYDIAKAAKQLVTITTKENNN
As for B3, the binding result in assay [1] is “binds”.

B4: G protein-coupled receptor kinase-interacting protein 2 (GIT2), endogenous (protein, UniProt Q14161 1-759)
chain: MSKRLRSSEVCADCSGPDPSWASVNRGTFLCDECCSVHRSLGRHISQVRHLKHTPWPPTLLQMVETLYNNGANSIWEHSLLDPASIMSGRRKANPQDKVHPNKAEFIRAKYQMLAFVHRLPCRDDDSVTAKDLSKQLHSSVRTGNLETCLRLLSLGAQANFFHPEKGNTPLHVASKAGQILQAELLAVYGADPGTQDSSGKTPVDYARQGGHHELAERLVEIQYELTDRLAFYLCGRKPDHKNGQHFIIPQMADSSLDLSELAKAAKKKLQSLSNHLFEELAMDVYDEVDRRETDAVWLATQNHSALVTETTVVPFLPVNPEYSSTRNQGRQKLARFNAHEFATLVIDILSDAKRRQQGSSLSGSKDNVELILKTINNQHSVESQDNDQPDYDSVASDEDTDLETTASKTNRQKSLDSDLSDGPVTVQEFMEVKNALVASEAKIQQLMKVNNNLSDELRIMQKKLQTLQSENSNLRKQATTNVYQVQTGSEYTDTSNHSSLKRRPSARGSRPMSMYETGSGQKPYLPMGEASRPEESRMRLQPFPAHIGRSALVTSSSSLPSFPSTLSWSRDESARRASRLEKQNSTPESDYDNTPNDMEPDGMGSSRKGRQRSMVWPGDGLVPDTAEPHVAPSPTLPSTEDVIRKTEQITKNIQELLRAAQENKHDSYIPCSERIHVAVTEMAALFPKKPKSDMVRTSLRLLTSSAYRLQSECKKTLPGDPGSPTDVQLVTQQVIQCAYDIAKAAKQLVTITTKENNN
As for B4, the binding result in assay [2] and in assay [3] was “binds” in each case.

Values taken from article PMC11963297.
